According to publication PMC5802837, “Lymphocyte-specific protein 1 regulates mechanosensory oscillation of podosomes and actin isoform-based actomyosin symmetry breaking” (Nature Communications, 2018):
No constants are given. Whether binding was seen depends on the method and setting. In cells and extracts the contact can be indirect. A result given as binding can be weak or reduced; the word gives no strength.

The chains behind the UniProt entries cited, without tags or fusion partners.
UniProt Q15746: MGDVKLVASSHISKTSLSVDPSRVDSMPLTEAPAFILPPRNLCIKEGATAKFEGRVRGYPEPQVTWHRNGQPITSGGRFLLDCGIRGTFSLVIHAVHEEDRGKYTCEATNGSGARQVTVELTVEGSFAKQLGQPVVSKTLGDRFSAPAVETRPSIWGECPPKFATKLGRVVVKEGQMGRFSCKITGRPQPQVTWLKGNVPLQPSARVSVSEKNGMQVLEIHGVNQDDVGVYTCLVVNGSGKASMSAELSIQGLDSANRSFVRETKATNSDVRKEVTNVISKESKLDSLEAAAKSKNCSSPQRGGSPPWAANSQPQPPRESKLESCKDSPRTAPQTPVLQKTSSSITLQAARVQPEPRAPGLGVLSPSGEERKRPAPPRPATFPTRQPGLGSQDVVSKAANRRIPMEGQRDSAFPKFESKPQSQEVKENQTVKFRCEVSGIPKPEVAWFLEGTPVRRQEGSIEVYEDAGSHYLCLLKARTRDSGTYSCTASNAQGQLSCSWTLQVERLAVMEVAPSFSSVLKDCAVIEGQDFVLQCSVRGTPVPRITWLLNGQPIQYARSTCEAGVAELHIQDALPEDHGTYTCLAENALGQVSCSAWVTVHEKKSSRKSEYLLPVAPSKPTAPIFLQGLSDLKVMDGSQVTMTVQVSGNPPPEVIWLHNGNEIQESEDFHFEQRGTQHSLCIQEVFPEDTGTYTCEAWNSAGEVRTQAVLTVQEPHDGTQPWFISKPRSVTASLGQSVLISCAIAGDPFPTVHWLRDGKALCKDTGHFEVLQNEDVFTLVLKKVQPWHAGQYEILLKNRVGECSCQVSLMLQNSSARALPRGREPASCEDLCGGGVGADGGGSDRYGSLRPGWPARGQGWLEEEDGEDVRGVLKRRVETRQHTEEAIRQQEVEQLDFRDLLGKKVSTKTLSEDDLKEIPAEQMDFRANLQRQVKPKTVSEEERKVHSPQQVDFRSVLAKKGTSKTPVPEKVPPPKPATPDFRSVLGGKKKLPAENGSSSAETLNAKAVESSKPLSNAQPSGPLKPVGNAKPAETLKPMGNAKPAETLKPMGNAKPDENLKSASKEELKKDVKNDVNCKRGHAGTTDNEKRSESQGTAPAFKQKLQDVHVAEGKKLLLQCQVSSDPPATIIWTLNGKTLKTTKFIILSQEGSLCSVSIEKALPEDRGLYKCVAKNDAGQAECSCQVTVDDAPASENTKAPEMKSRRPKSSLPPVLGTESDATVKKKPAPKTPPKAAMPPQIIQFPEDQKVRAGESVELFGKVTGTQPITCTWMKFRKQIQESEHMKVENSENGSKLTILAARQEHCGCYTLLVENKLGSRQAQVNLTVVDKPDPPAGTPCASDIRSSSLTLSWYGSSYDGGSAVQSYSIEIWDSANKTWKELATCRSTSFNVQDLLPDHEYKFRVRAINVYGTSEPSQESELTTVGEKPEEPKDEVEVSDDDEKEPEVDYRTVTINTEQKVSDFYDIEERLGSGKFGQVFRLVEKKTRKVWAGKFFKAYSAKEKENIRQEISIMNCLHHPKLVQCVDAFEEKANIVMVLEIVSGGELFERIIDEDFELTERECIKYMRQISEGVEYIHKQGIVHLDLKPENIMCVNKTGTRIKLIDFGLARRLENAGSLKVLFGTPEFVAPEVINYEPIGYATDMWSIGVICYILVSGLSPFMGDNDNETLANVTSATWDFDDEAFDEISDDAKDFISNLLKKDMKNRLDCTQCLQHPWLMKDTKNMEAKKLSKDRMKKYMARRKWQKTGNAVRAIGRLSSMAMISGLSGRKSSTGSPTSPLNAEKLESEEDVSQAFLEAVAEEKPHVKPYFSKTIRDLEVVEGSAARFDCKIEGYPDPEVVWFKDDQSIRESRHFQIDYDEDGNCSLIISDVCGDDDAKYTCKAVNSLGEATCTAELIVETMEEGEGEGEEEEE

Target: T1, supervillin construct SV1-830-GFP (UniProt O46385-2 1-830)
T1 construct: supervillin, N-terminal region, residues 1-830; as far as recalled the Luna laboratory constructs are bovine supervillin; also called GFP-SV1-830; GFP-supervillin 1-830; source: primary human macrophages, transfected, in lysate
Assay: co-IP; anti-GFP immunoprecipitation (µMACS anti-GFP Microbeads) from lysates of macrophages expressing GFP-fused constructs (500 mM NaCl, 2% Triton X-100, 50 mM Tris-HCl pH 8.0), washes with RIPA and high-salt RIPA; GFP alone as control; western blot of endogenous partners, densitometry

**Q.** With “long form of myosin light chain kinase (L-MLCK), endogenous (from UniProt Q15746 1-1914) (enzyme)” as the substance, how does the binding read?
**A.** binds
